Test results: paper PMC2724103
Results are given in words; binding and its absence hold for the method and conditions named. Binding seen in cells or lysates may run through a third protein. Some entries that bind do so weakly or less than the wild type. Tags and fused reporters may be left off the sequences shown.

Target: T1, HA-tagged syntaxin5 (human) (UniProt Q13190)
T1 sequence: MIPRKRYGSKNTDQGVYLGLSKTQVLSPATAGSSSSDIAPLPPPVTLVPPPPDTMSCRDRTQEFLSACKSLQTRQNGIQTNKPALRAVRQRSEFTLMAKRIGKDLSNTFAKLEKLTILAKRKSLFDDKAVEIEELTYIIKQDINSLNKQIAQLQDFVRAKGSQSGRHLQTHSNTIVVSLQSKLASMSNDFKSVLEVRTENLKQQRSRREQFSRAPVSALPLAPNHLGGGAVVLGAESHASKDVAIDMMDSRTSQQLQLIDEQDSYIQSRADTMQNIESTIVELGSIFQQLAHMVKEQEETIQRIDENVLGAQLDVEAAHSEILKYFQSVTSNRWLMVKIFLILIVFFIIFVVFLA
Experiment: co-IP; HeLa cells transiently transfected with pcDNA3.1-HA-STX5, noninfected or infected with wild-type S. Typhimurium, ΔsptP, or ΔsptP pSPTP; HA-syntaxin5 immunoprecipitated with anti-HA on protein G Sepharose; immunoblot for HA and VCP in bound and unbound fractions

**Q.** “VCP, endogenous in HeLa cells (from UniProt P55072 1-806)” was tested. Which binding did it give?
**A.** binds
